Article PMC10617600
No constants are given. Whether binding was seen depends on the method and setting. For some assays here: Binding seen in cells or lysates may run through a third protein. Some entries that bind do so weakly or less than the wild type. For some assays here: Sequences can lack the tags named with a protein. Each block holds one molecule with its values, some of them ahead of it.

By UniProt entry, the sequences of proteins in these tests, tags left out. Where a name states a change or a piece, a line headed by the entry shows the natural chain unless it says otherwise.
UniProt P19073: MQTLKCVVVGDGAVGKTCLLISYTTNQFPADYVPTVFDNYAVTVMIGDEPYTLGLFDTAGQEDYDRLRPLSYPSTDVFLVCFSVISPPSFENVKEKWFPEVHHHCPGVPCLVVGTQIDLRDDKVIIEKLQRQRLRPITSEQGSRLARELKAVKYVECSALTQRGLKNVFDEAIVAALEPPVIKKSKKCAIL

Key:
[1] = target: T1, Axl2–TAP (S. cerevisiae) (UniProt P38928); test: pull-down; as a1, in a bud4Δ mutant strain: Axl2–TAP captured on IgG-Sepharose from yeast S10 lysate, 4°C; anti-Myc immunoblot
T1 sequence: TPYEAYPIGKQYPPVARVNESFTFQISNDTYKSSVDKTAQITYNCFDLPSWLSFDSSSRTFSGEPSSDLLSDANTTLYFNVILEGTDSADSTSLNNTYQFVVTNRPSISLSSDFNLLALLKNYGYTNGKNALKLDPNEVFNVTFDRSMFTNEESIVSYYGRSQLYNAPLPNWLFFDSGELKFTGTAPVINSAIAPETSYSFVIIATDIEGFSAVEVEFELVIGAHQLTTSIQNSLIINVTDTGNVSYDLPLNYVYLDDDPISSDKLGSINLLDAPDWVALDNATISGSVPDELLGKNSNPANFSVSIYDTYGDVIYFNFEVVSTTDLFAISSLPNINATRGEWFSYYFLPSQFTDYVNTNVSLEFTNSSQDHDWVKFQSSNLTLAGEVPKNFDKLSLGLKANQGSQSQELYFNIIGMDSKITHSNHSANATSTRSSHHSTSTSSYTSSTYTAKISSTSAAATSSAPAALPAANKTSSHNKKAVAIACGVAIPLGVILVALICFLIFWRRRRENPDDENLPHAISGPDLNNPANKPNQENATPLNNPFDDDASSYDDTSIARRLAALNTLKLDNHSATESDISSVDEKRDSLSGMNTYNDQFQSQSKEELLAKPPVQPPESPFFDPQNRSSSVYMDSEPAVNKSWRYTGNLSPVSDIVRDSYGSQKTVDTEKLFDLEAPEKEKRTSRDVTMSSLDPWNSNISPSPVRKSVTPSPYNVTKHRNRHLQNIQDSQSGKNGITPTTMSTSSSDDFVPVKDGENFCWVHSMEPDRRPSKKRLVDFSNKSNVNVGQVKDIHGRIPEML

[2] = target: T1, Axl2–TAP (S. cerevisiae); test: pull-down; lysates of WT or bud3Δ yeast expressing GST-CDC42 incubated with TAP–Axl2 bound IgG-Sepharose beads, 1 h at 4°C; 50 mM HEPES pH 7.6, 100 mM KCl, 1 mM EGTA, 1 mM MgCl2, 10% glycerol, 0.33% Triton X-100; anti-GST immunoblot; only the target purified
[3] = target: T2, DBD–Cdc10 (S. cerevisiae) (UniProt P25342); test: two-hybrid; AD fusions (pJG4-5) and DBD fusions (pEG202) in host strain WT (EGY48) or bud3Δ (HPY3657); LEU2 reporter, growth on SGal −Leu for 3–4 days at 30°C
T2 sequence: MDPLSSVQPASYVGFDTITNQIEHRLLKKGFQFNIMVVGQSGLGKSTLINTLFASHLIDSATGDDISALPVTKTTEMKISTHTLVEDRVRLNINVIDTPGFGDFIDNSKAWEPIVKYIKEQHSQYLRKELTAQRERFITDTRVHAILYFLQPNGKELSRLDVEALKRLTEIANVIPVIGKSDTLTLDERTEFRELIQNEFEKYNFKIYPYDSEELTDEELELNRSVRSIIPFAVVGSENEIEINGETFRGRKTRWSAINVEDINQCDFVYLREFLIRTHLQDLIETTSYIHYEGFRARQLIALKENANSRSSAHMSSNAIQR

[4] = target: DBD–Cdc42^D118A (S. cerevisiae) (UniProt P19073); test: as above
[5] = target: DBD–Cdc42 (WT) (S. cerevisiae) (UniProt P19073); test: as above
[6] = target: DBD–Cdc42^G12V (S. cerevisiae) (UniProt P19073); test: as above
[7] = target: DBD–Cdc42^G15A (S. cerevisiae) (UniProt P19073); test: as above
[8] = target: T1, Axl2–TAP (S. cerevisiae); test: pull-down; Axl2–TAP captured on IgG-Sepharose from yeast S10 lysate, 1 h at 4°C; 50 mM HEPES pH 7.6, 300 mM KCl, 1 mM EGTA, 1 mM MgCl2, 10% glycerol, 1% Triton X-100; anti-Myc immunoblot; WT and axl1 mutant strains
[9] = target: T3, Cdc10–VC (S. cerevisiae) (UniProt P25342); test: split reporter; BiFC with VN and VC fragments of Venus in living yeast cells (haploid; diploid for Cdc10–Cdc10; WT and axl2Δ), YFP imaging at ∼24°C
T3 sequence: T2 sequence

[10] = target: DBD–Cdc42^K5A (S. cerevisiae) (UniProt P19073); test: two-hybrid; AD fusions (pJG4-5) and DBD fusions (pEG202) in host strain WT (EGY48) or bud3Δ (HPY3657); LEU2 reporter, growth on SGal −Leu for 3–4 days at 30°C

B1: AD–Axl2(C) (domain or fragment, UniProt P38928 529-823)
chain: WRRRRENPDDENLPHAISGPDLNNPANKPNQENATPLNNPFDDDASSYDDTSIARRLAALNTLKLDNHSATESDISSVDEKRDSLSGMNTYNDQFQSQSKEELLAKPPVQPPESPFFDPQNRSSSVYMDSEPAVNKSWRYTGNLSPVSDIVRDSYGSQKTVDTEKLFDLEAPEKEKRTSRDVTMSSLDPWNSNISPSPVRKSVTPSPYNVTKHRNRHLQNIQDSQSGKNGITPTTMSTSSSDDFVPVKDGENFCWVHSMEPDRRPSKKRLVDFSNKSNVNVGQVKDIHGRIPEML
binding [3]: binds | binding [4]: no binding | binding [5]: binds | binding [6]: binds | binding [7]: no binding

B2: Bud3ΔN–Myc (domain or fragment, UniProt P25558 260-1636)
chain: DLVKAICNELLQLQTNFTFNLVEFLQKFLIALRVRVLNEEINGLSTTKLNRLFPPTIDEVTRINCIFLDSLKTAIPYGSLEVLKACSITIPYFYKAYTRHEAATKNFSKDIKLFIRHFSNVIPEREVYTEMKIESIIKGPQEKLLKLKLIIERLWKSKKWRPKNQEMAKKCYNNIIDVIDSFGKLDSPLHSYSTRVFTPSGKILTELAKCWPVELQYKWLKRRVVGVYDVVDLNDENKRNLLVIFSDYVVFINILEAESYYTSDGSNRPLISDILMNSLINEVPLPSKIPKLKVERHCYIDEVLVSILDKSTLRFDRLKGKDSFSMVCKLSSAFISSSSVADLITKARILEKDTAFHLFKASRSHFTLYSTAHELCAYDSEKIKSKFALFLNIPPSKEILEVNNLHLAFFARFCSNDGRDNIVILDVLTKHDDKHIEVTSDNIVFTIINQLAIEIPICFSSLNSSMAKDLLCVNENLIKNLEHQLEEVKHPSTDEHRAVNSKLSGASDFDATHEKKRSYGTITTFRSYTSDLKDSPSGDNSNVTKETKEILPVKPTKKSSKKPREIQKKTKTNASKAEHIEKKKPNKGKGFFGVLKNVFGSKSKSKPSPVQRVPKKISQRHPKSPVKKPMTSEKKSSPKRAVVSSPKIKKKSTSFSTKESQTAKSSLRAVEFKSDDLIGKPPDVGNGAHPQENTRISSVVRDTKYVSYNPSQPVTENTSNEKNVEPKADQSTKQDNISNFADVEVSASSYPEKLDAETDDQIIGKATNSSSVHGNKELPDLAEVTTANRVSTTSAGDQRIDTQSEFLRAADVENLSDDDEHRQNESRVFNDDLFGDFIPKHYRNKQENINSSSNLFPEGKVPQEKGVSNENTNISLKTNEDASTLTQKLSPQASKVLTENSNELKDTNNEGKDAKDIKLGDDYSDKETAKEITKPKNFVEGITERKEIFPTIPRLAPPASKINFQRSPSYIELFQGMRVVLDKHDAHYNWKRLASQVSLSEGLKVNTEEDAAIINKSQDDAKAERMTQISEVIEYEMQQPIPTYLPKAHLDDSGIEKSDDKFFEIEEELKEELKGSKTGNEDVGNNNPSNSIPKIEKPPAFKVIRTSPVRIIGRTFEDTRKYENGSPSDISFTYDTHNNDEPDKRLMELKFPSQDEIPDDRFYTPAEEPTAEFPVEELPNTPRSINVTTSNNKSTDDKLSSGNIDQKPTELLDDLEFSSFNIAFGNTSMSTDNMKISSDLSSNKTVLGNAQKVQESPSGPLIYVLPQSSTKHEKEGFLRKKQKDEPIWVSPSKIDFADLSRRTKALTPERNTVPLKNNDSRKYKYTGEGSIGNMTNMLLTKDASYAYLKDFVALSDDEDEDGKQNCAVGGPEKLKFY
binding [8]: no binding

B4: AD–Bud3 (domain or fragment, UniProt P25558 1-656)
chain: MEKDLSSLYSEKKDKENDETLFNIKLSKSVVETTPLNGHSLFDDDKSLSDWTDNVFTQSVFYHGSDDLIWGKFFVCVYKSPNSNKLNAIIFDKLGTSCFESVDISSNSQYYPAIENLSPSDQESNVKKCIAVILLQRYPLLSPSDLSQILSNKSENCDYDPPYAGDLASSCQLITAVPPEDLGKRFFTSGLLQNRFVSSTLLDVIYENNESTIELNNRLVFHLGEQLEQLFNPVTEYSPEQTEYGYKAPEDELPTESDDDLVKAICNELLQLQTNFTFNLVEFLQKFLIALRVRVLNEEINGLSTTKLNRLFPPTIDEVTRINCIFLDSLKTAIPYGSLEVLKACSITIPYFYKAYTRHEAATKNFSKDIKLFIRHFSNVIPEREVYTEMKIESIIKGPQEKLLKLKLIIERLWKSKKWRPKNQEMAKKCYNNIIDVIDSFGKLDSPLHSYSTRVFTPSGKILTELAKCWPVELQYKWLKRRVVGVYDVVDLNDENKRNLLVIFSDYVVFINILEAESYYTSDGSNRPLISDILMNSLINEVPLPSKIPKLKVERHCYIDEVLVSILDKSTLRFDRLKGKDSFSMVCKLSSAFISSSSVADLITKARILEKDTAFHLFKASRSHFTLYSTAHELCAYDSEKIKSKFALFLNIPPSK
binding [10]: binds

The remaining lines, values ahead:

binding [1]: binds weakly
Molecule: Bud3–Myc (from UniProt P25558 1-1636)

binding [2]: binds
Molecule: GST–Cdc42 (from UniProt P19073 1-191)

binding [9]: binds
B3: Cdc10–VC (protein, UniProt P25342 1-322)
chain: T2 sequence

binding [9]: binds
B5: Cdc3–VN (protein, UniProt P32457 1-520)
chain: MSLKEEQVSIKQDPEQEERQHDQFNDVQIKQESQDHDGVDSQYTNGTQNDDSERFEAAESDVKVEPGLGMGITSSQSEKGQVLPDQPEIKFIRRQINGYVGFANLPKQWHRRSIKNGFSFNLLCVGPDGIGKTTLMKTLFNNDDIEANLVKDYEEELANDQEEEEGQGEGHENQSQEQRHKVKIKSYESVIEENGVKLNLNVIDTEGFGDFLNNDQKSWDPIIKEIDSRFDQYLDAENKINRHSINDKRIHACLYFIEPTGHYLKPLDLKFMQSVYEKCNLIPVIAKSDILTDEEILSFKKTIMNQLIQSNIELFKPPIYSNDDAENSHLSERLFSSLPYAVIGSNDIVENYSGNQVRGRSYPWGVIEVDNDNHSDFNLLKNLLIKQFMEELKERTSKILYENYRSSKLAKLGIKQDNSVFKEFDPISKQQEEKTLHEAKLAKLEIEMKTVFQQKVSEKEKKLQKSETELFARHKEMKEKLTKQLKALEDKKKQLELSINSASPNVNHSPVPTKKKGFLR
